Laboratory results taken from patent US20240264164A1, “DETERGENTS AND METHODS” (OXFORD UNIVERSITY INNOVATION LIMITED, priority 2021, published 2024).

System: TSPO, AmtB and AqpZ membrane proteins (protein-phospholipid complexes)
Assay: Phospholipid delipidation at low detergent concentration, nESI mass spectrometry
Conditions: detergent exchange from DDM, 2×CAC of detergent, nESI MS

Structure (SMILES) | degree of phospholipid delipidation of membrane proteins
CCCCCCCCCCCCOC(COCCOCCOCCOCCO)COCC(O)CO (centres unmarked) [detergent 3] | less delipidating towards phospholipids than detergent 1
CCCCCCCCCCCCOC(COCCOCCOCCOCCO)COCCOC1OC(CO)C(O)C(O)C1O (centres unmarked) [detergent 5] | less delipidating towards phospholipids than either OG or C8E4
